What is called EC50 is the concentration needed to bring the measured effect to its halfway point.

Protein sequences, listed by entry. Tags and fused reporters are not part of them. Residues count along the entry.
UniProt Q13490, 260-352 limits assumed: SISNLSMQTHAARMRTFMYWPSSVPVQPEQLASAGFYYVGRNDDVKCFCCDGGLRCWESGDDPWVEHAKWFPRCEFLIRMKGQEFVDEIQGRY
UniProt P98170, 241-356 limits assumed: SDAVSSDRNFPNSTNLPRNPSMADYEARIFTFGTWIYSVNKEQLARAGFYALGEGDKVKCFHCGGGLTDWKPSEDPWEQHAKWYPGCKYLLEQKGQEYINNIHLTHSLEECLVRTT

Structures were worked out from names or drawings and are uncertain.

Among the data in patent US8445440B2, “Dimeric IAP inhibitors” (Novartis AG, priority 2010, dated 2013) are EC50 and IC50 values, retold here.

The target in one test is cIAP1-BIR3 (Homo sapiens, UniProt Q13490). The test is described as follows: Biacore SPR solution competition binding assay vs smac7 mer peptide, cIAP1-BIR3. Conditions: read-out: CIAP-BIR3 Binding Biacore (Competitive) EC50, citrate salt form tested, 6 nM cIAP1-BIR3, 25° C. The source says: (§1) The compounds described herein above were profiled using a cellular assay (using SKOV3 or Panc3.27 tumor cells) and a binding assay to determine the competition between the compounds of the present invention and smac7 mer peptide for XIAP-BIR3 and cIAP1-BIR3 binding groove occupancy.
(§2) The present method includes utility of a Surface plasmon resonance (SPR)-based biosensor (Biacore™ GE Healthcare, Uppsala, Sweden) to examine competition between the compounds of the present invention and smac7 mer peptide for XIAP-BIR3 and cIAP1-BIR3 binding groove occupancy.
(§3) Biacore™ utilizes the phenomenon of surface plasmon resonance (SPR) to detect and measure binding interactions. […] Changes in refractive index or signal are recorded in resonance units (R.U.) Signal changes due to association and dissociation of complexes are monitored in a non-invasive manner, continuously and in real-time, the results of which are reported in the form of a sensorgram. […]
(§4) Data analyses were carried out using Biacore™ T100 evaluation software v2.0 to validate assay quality. Binding level report points were plotted versus logarithmic compound concentration values and analyzed in Graphpad prism 5 via non-linear regression using a one-site competition model. […]

The target in another test is XIAP-BIR3 (Homo sapiens, UniProt P98170). The test is described as follows: Biacore SPR solution competition binding assay vs smac7 mer peptide, XIAP-BIR3. As to conditions: read-out: XIAP-BIR3 Binding Biacore (Competitive) EC50, citrate salt form tested, 100 nM XIAP-BIR3, 25° C.
Description: as §1, §2, §3, §4

The next test has as its system SKOV3 tumor cells. As to the kind of experiment: Cellular assay, SKOV3 tumor cell proliferation (Cell Titer Glo). Conditions: read-out: SKOV3 proliferation IC50, citrate salt form tested, 72 hour growth. On the procedure: as §1
(§5) On day one adherent SKOV3 and Panc3.27 cells are plated into two 96-well, clear, flat bottom plates. All wells in row A contain 90 uL of media. All wells in rows B-G contain a total volume of 90 uL per well and 2000 cells per well for SKOV3 and 4000 cells per well for Panc3.27 cell lines. Plates are then incubated overnight for 18 hours at 37° C., 5% CO2. […]
(§6) To measure cell viability 50 uL of Cell Titer Glo (CTG) solution is added to row A, media only and B, cells and media. […] After incubating for ten minutes with CTG plates are measured on a luminescent reader at 700 nm wavelength. Read time is approximately one second per well for a 96-well plate.
(§7) On day five 50 uL of CTG is added to plate one, rows A-G, incubated for 10 minutes at room temperature and read on a luminescent reader. […] Triplicate values are averaged and percent control growth is calculated. Percent control growth is calculated using the following logical test: If well read data point (a) is greater than time zero data point (t=0), then 100*[(a)−(t=0)]/[(72 hour total growth)−(t=0)], OR 100*[(a)−(t=0)]/[(t=0)]. […]
On the technique in general: In ATP-based viability assays light output follows the ATP content of the culture.

Another test has as its system Panc3.27 tumor cells. As to the kind of experiment: Cellular assay, Panc3.27 tumor cell proliferation (Cell Titer Glo). As to conditions: read-out: PANC proliferation IC50, citrate salt form tested, Panc3.27 cells, 72 hour growth. On the procedure:
as §1, §5, §6, §7

Consider `CN[C@@H](C)C(=O)N[C@@H](CCCCNS(=O)(=O)c1cccc(S(=O)(=O)NCCCC[C@H](NC(=O)[C@H](C)NC)C(=O)N2CCC[C@H]2c2cncc(C(=O)c3ccc(F)cc3)c2)c1)C(=O)N1CCC[C@H]1c1cncc(C(=O)c2ccc(F)cc2)c1`, for which the values for the EC50 on cIAP1-BIR3 and at XIAP-BIR3 were 0.68 nM and 66.5 to 72.8 nM, respectively. The IC50 with SKOV3 tumor cells lay in the range of 81.1 to 83.8 nM; with Panc3.27 tumor cells, 43.5 to 246 nM.
